{"sequences": {"note": "Chains of the proteins cited; added tags and fusions are not shown.", "UniProt Q03431, whole entry, looked up": "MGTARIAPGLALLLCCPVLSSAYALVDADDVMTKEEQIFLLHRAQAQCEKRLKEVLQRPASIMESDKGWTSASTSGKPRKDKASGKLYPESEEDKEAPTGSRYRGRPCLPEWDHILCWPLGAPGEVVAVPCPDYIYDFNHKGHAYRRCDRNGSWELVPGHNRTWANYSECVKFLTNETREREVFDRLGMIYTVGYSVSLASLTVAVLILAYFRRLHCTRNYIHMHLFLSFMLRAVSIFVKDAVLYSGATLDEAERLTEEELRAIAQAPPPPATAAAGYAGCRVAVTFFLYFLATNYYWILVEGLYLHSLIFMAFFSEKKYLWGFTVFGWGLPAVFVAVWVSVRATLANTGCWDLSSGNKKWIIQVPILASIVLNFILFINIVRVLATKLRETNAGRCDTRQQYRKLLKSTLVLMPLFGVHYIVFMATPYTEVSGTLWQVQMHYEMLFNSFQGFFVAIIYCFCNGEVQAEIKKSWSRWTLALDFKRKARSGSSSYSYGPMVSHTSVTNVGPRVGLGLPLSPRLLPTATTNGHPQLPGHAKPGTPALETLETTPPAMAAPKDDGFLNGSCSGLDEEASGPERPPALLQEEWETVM"}, "source": "PubChem BioAssay AID743266", "about": "(National Center for Advancing Translational Sciences (NCATS), 2014)", "note": "Hit rate of the full screen: of about 410,000 compounds, about 310 (0.076%) were called active. Inconclusive means that the source gave no clear call. Such entries were picked first, then a sample of the others. Calls follow the shape of the dose curve; as a rule, active = well fitted activation curve with a large enough effect; inconclusive = small, poorly fitted or top-dose-only effect, or another doubt; inactive = no such curve, though single readings can be large or run the other way. A potency beside an inconclusive call is a rough fit, not a confirmed value.", "data": [{"biological_target": "Parathyroid hormone/parathyroid hormone-related peptide receptor (Homo sapiens) (UniProt Q03431)", "test": "qHTS for PTHR1 Agonists: Primary Screen; also: nearly all actives have a fitted effect of over 55% in size; also: potency is read from the fitted curve at half-maximal effect", "settings": "HEK293 GP2 PTHR1 cells, GloSensor cAMP luminescence, 1 h; activation: at 115 µM (top of the series) unless noted; series mostly up to 115 µM", "outline": "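HEK-293-derived GP2 cells expressing PTHR1 and a GloSensor cAMP reporter, 3,000/well, plated overnight, given luciferin plus IBMX (each 0.5 mM as added) for 1 h at 37 °C, then compound for 1 h at 37 °C. Luminescence was read after 15 min at room temperature.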", "values": [{"compound": "CCOC(=O)C1=C(NC(=S)NC(=O)c2ccccc2)c2ccccc2CC1C(C)C", "note": "(stereo not given)", "activation": "inactive: -0.785% [at 57.5 µM]"}, {"compound": "COc1ccc(C(CNC(=O)c2cc3c(s2)CCC(C)C3)N2CCCC2)cc1", "note": "(stereo not given)", "activation": "inactive: -11%"}, {"compound": "CCOC(=O)c1c(C)oc2nc(C)nc(NCc3ccc(Cl)cc3)c12", "activation": "inconclusive: 32.7% [activator]"}, {"compound": "O=C(N/N=C/c1ccccn1)c1cc(-c2ccc(Br)cc2)nc2ccccc12", "Potency": "inconclusive: 14.1 µM [activator, partial curve]"}, {"compound": "CC(C)CN1CCc2nc(N3CCN(C)CC3)ncc2C1", "Potency": "inconclusive: 126 µM [activator, single point]"}, {"compound": "CCC(C)(C)C1CCc2c(sc(NC(=O)C3c4ccccc4Oc4ccccc43)c2C(N)=O)C1", "note": "(stereo not given)", "Potency": "inconclusive: 44.7 µM [activator, partial curve, poor fit]"}, {"compound": "ONC(=Nc1ccccc1Cl)c1c(F)cccc1F", "activation": "inconclusive: 35.7% [activator]"}, {"compound": "O=C(CSc1nc2cc(Cl)ccc2s1)NC(=O)NCc1ccco1", "Potency": "inconclusive: 8.91 µM [activator, full curve, poor fit]"}, {"compound": "Cn1nc2c3cc(F)ccc3n(Cc3ccc(F)cc3)cc-2c1=O", "activation": "inconclusive: 37.8% [activator]"}, {"compound": "CC(=O)N(C)c1ccc(OCC(O)Cn2c3ccc(Cl)cc3c3cc(Cl)ccc32)cc1", "note": "(stereo not given)", "Potency": "inconclusive: 3.16 µM [activator, partial curve, poor fit]"}, {"compound": "O=C(/C=C\\c1ccccc1)Oc1cccc2cccnc12", "activation": "inconclusive: 14.9% [activator]"}, {"compound": "O=C(Cc1ccccc1)N1CCN(c2ccccc2F)CC1", "activation": "inactive: -14.2%"}, {"compound": "Cc1csc2nc(-c3cccc(NC(=O)c4ccccc4Cl)c3)cn12", "outcome": "inactive"}, {"compound": "CCOC(=O)CNC(=O)CSc1nnnn1-c1cc(C)ccc1C", "Potency": "inconclusive: 1.26 µM [activator, full curve, poor fit]"}, {"compound": "COc1ccc(OC)c(-c2cc(C3CCN(C(=O)OC(C)(C)C)CC3)[nH]n2)c1", "outcome": "inactive"}, {"compound": "CCOC(=O)c1c(-c2ccccc2)csc1NC(=O)/C(C#N)=C/c1ccc(O)c(OC)c1", "activation": "inactive: -3.9%"}, {"compound": "Cc1ccc2c(c1)c1c(n2CC(O)CN2CCC(C)CC2)CCCC1", "note": "(stereo not given)", "Potency": "inconclusive: 44.7 µM [activator, partial curve, poor fit]"}, {"compound": "CC/C(Cc1ccccc1)=N/NC(=O)CNC(=O)c1ccc(Cl)cc1Cl", "outcome": "inactive"}, {"compound": "Cc1ccc(C)c(NC(=O)Cn2c(=O)n(Cc3ccco3)c(=O)c3oc4ccccc4c32)c1", "activation": "inactive: 13.3%"}, {"compound": "CC(C)C(=O)N=c1sc2cccc(F)c2n1C", "activation": "inconclusive: 30.9% [activator]"}, {"compound": "COc1ccc(OC)c2c(C)cc(NCCN3CCOCC3)nc12", "Potency": "inconclusive: 39.8 µM [activator, single point]"}, {"compound": "CC1(C(=O)NS(=O)(=O)c2ccc(Cl)cc2)CCN1C(=O)Cc1ccc(Cl)cc1Cl", "note": "(stereo not given)", "activation": "inconclusive: -2.54% [activator]"}, {"compound": "Cc1cc(Br)c(NC(=O)Cn2c([N+](=O)[O-])cnc2C)cc1C", "activation": "inconclusive: -48% [activator]"}, {"compound": "CCOc1cc(/C=N/NC(=O)C(OC)c2ccccc2)ccc1O", "note": "(stereo not given)", "Potency": "inconclusive: 100 µM [activator, single point]"}, {"compound": "O=C(NCCc1ccccc1)c1c(F)c(F)c(F)c(F)c1F", "Potency": "inconclusive: 44.7 µM [activator, partial curve, poor fit]"}, {"compound": "O=C(CSc1nc(-c2ccc(F)cc2)[nH]c1-c1ccccc1)NCC1CCCO1", "note": "(stereo not given)", "Potency": "inconclusive: 126 µM [activator, single point]"}, {"compound": "CCOc1ccc(C(C(=O)NC2CCCC2)N(Cc2ccccc2)C(=O)c2nsc(Cl)c2Cl)cc1", "note": "(stereo not given)", "activation": "inactive: -18.5%"}, {"compound": "Cc1ccccc1C(=O)NNC(=O)c1cccc([N+](=O)[O-])c1", "Potency": "inconclusive: 141 µM [activator, single point]"}, {"compound": "COc1ccc(-c2noc(CCC(N)=O)n2)cc1OC", "Potency": "inconclusive: 35.5 µM [activator, single point]"}, {"compound": "Cc1ccc(OCc2nnc(SCC(=O)c3ccccc3)n2-c2ccccc2)cc1", "activation": "inactive: -5.37%"}, {"compound": "COc1ccc(NC(=O)N2CCOCC2)cc1", "activation": "inconclusive: 31.6% [activator]"}, {"compound": "COc1ccc(NC(=O)N(C)[C@H]2C[C@H]3c4[nH]c5ccc(-c6ccc7c(c6)OCO7)cc5c4CCN3C[C@H]2[C@H](C)O)cc1", "activation": "inactive: 9.05%"}, {"compound": "CC1NC(C)c2c(ccc3ccccc23)O1", "note": "(stereo not given)", "Potency": "inconclusive: 7.08 µM [activator, full curve, poor fit]"}, {"compound": "COc1cc([C@@H]2CC=C(C(=O)O)[C@H](c3ccc(Cl)cc3)N2S(=O)(=O)c2ccc(C)cc2)cc(OC)c1OC", "activation": "inconclusive: 31.8% [activator]"}, {"compound": "CCN1CC=C2C(C#N)=C(N)C(C#N)(C#N)[C@H](c3cccc(OC)c3OC)[C@H]2C1", "activation": "inactive: -16.8% [at 57.5 µM]"}, {"compound": "CC(/C=N/NC(=O)Cn1nccc1C)=C\\c1ccc(C(C)C)cc1", "activation": "inactive: -5.88%"}, {"compound": "CCOC(=O)C(NC(=O)CCC(=O)Nc1ccc(S(N)(=O)=O)cc1)C(O)c1ccccc1", "note": "(stereo not given)", "Potency": "inconclusive: 1.78 µM [activator, partial curve, poor fit]"}, {"compound": "Cc1cc(NC(=O)CCN2C(=O)c3ccccc3C2=O)no1", "activation": "inactive: -7.05% [at 57.5 µM]"}, {"compound": "CCOC(=O)CC(NS(=O)(=O)c1ccc2[nH]c3c(c2c1)CCCC3)c1ccccc1Cl", "note": "(stereo not given)", "activation": "inactive: -44.9%"}, {"compound": "Cn1c(CNC(=O)CNS(=O)(=O)c2ccccc2)cc(=O)n(C)c1=O", "Potency": "inconclusive: 8.91 µM [activator, partial curve, poor fit]"}, {"compound": "CCOC(=O)c1cc(-c2csc(-c3cccc(Cl)c3)n2)on1", "activation": "inconclusive: -92.6% [activator]"}, {"compound": "COc1cc(NS(=O)(=O)c2ccc(NC(=S)NC(=O)C3CCCC3)cc2)nc(OC)n1", "Potency": "inconclusive: 35.5 µM [activator, single point]"}, {"compound": "COc1ccccc1CC(=O)NCCc1ccccc1", "Potency": "inconclusive: 20 µM [activator, full curve]"}, {"compound": "COCCN1C(=O)COc2ccccc2C1C(=O)NC1CCCC1", "note": "(stereo not given)", "Potency": "inconclusive: 126 µM [activator, partial curve, poor fit]"}, {"compound": "CCOC(=O)C1CCN(S(=O)(=O)c2ccc(C(C)=O)cc2)CC1", "Potency": "inconclusive: 1.26 µM [activator, full curve, poor fit]"}]}]}
